These are yes or no findings as the source states them, for the method shown.
Biological target: T1, M. tuberculosis GroEL1 (full length) (M. tuberculosis), P9WPE9
T1 chain: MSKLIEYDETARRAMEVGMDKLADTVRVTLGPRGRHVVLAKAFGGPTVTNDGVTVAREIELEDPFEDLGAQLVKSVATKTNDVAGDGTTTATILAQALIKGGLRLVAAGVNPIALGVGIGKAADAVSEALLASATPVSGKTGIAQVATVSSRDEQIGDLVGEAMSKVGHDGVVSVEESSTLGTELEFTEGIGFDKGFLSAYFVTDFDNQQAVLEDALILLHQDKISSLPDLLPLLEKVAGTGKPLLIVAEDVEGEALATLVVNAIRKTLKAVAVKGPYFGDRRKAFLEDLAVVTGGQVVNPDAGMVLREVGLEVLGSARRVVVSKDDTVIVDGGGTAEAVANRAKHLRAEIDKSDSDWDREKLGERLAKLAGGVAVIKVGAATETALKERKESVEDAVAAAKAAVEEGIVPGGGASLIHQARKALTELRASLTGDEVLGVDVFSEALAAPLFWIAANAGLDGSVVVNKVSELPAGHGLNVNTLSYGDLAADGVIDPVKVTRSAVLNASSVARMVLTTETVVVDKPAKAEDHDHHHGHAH
Test: SAXS
Conditions: remark: other sources report otherwise

B1: M. tuberculosis GroEL1 (full length), P9WPE9 1-539 (protein)
chain: MSKLIEYDETARRAMEVGMDKLADTVRVTLGPRGRHVVLAKAFGGPTVTNDGVTVAREIELEDPFEDLGAQLVKSVATKTNDVAGDGTTTATILAQALIKGGLRLVAAGVNPIALGVGIGKAADAVSEALLASATPVSGKTGIAQVATVSSRDEQIGDLVGEAMSKVGHDGVVSVEESSTLGTELEFTEGIGFDKGFLSAYFVTDFDNQQAVLEDALILLHQDKISSLPDLLPLLEKVAGTGKPLLIVAEDVEGEALATLVVNAIRKTLKAVAVKGPYFGDRRKAFLEDLAVVTGGQVVNPDAGMVLREVGLEVLGSARRVVVSKDDTVIVDGGGTAEAVANRAKHLRAEIDKSDSDWDREKLGERLAKLAGGVAVIKVGAATETALKERKESVEDAVAAAKAAVEEGIVPGGGASLIHQARKALTELRASLTGDEVLGVDVFSEALAAPLFWIAANAGLDGSVVVNKVSELPAGHGLNVNTLSYGDLAADGVIDPVKVTRSAVLNASSVARMVLTTETVVVDKPAKAEDHDHHHGHAH
- binding: no binding (tested: 5 mg/ml)

Source: paper doi:10.1101/766162
